According to PMC10163288:
This is one part of the list.

B1: il10ra_site1_normal_mot_b26a303360aa2756ef5b79665ce52f45_0001_000000179_0001_1_11_H_._HHH_b2_04602_0001_0000200015_0000001_0 (protein)
chain: SSSSSESYEIARRAIEEALELFRRGNPEKAEEVLEEAERLVEELNDEVTLFSLRHALRDLSSSSS
B2: il10ra_site1_normal_mot_HHH_b1_02997_000000220_0001_39_52_H_._HHH_b1_01256_0001_0000100003_0000001_0_af2pred_dldesign_0_af2pred (protein)
chain: SSSSSDQEKIDKIIDLIREALELEDPEEARRVLEEAIKLAKEANDPILEYNAEYLLRQVESSSSS
B3: il10ra_site1_sap_25_mot_HHH_b2_02736_000000092_0001_22_38_H_._HHH_b1_01266_0001_0000100003_0000002_0_0001_af2pred_0001 (protein)
chain: SSSSSSTDAREVKRLLEEALHIDDPEEREELLEEALRLAEEGNDLTAEVIVRFALKRLSSSSSSS
B4: il10ra_site1_sap_21_mot_HHH_b1_03314_af2_000000278_0001_42_55_H_._HHH_b2_06165_0001_0000200009_0000001_0_0001 (protein)
chain: SSSSDSAEIAVKVLEESLRRAKELGDEEYARNAARFLLHIARWAGDEEVQEFAEEVLEELSSSSS
B5: il10ra_site1_sap_25_mot_HHH_b1_08446_000000041_0001_1_19_H_._HHH_b1_00288_af2_0001_0000100004_0000002_0_0001 (protein)
chain: SSSSDEAYEVSRRFIEEAAQAAREGNPEEAERLLEEAIEEVKELGNRVAVMVLEWALELYESSSS
B6: il10ra_site1_sap_14_mot_HHH_b2_07442_000000239_0001_40_54_H_._HHH_b2_03913_0001_0000100003_0000002_0_0001 (protein)
chain: SSSSSDDERAEEQAKAAFRFARSADEETRRFVEWSLEFLAEDFNDPELEKLLRELRELLSSSSSS
B7: il10ra_site1_normal_mot_HHH_b2_00984_000000042_0001_1_20_H_._HHH_b2_02963_0001_0000400015_0000001_0 (protein)
chain: SSSSSDEEEVRRLLEEAEELFENGNPEEAVELLLEAVQIAQENSNPELLQEVWEVIKELFSSSSS
B8: il10ra_site1_sap_18_mot_HHH_b1_04015_af2_000000074_0001_1_17_H_._HHH_b2_01387_0001_0000100001_0000002_0_0001 (protein)
chain: SSSSSTEEVMELIREAAELDQQGNEEEAREVLEEAQKLAEELNNWALRWAIEHLERVLNSSSSSS
B9: il10ra_site1_sap_20_mot_HHH_b1_07932_000000020_0001_21_38_H_._HHH_b1_03085_af2_0001_0000300024_0000001_0_0001 (protein)
chain: SSSSDELAQELLELVLEAVRLALRGNPEEAEELLEEAEELARKVGDERALEMVEDLLKALSSSSS
B10: il10ra_site1_sap_19_mot_cf6887094a6cbc74a5ee628dd8f6c644_0001_1_af2_000000155_0001_15_32_H_._HHH_b2_06314_0001_0000300023_0000001_0_0001 (protein)
chain: SSSSTQEIMKLIEELSEAIQEGDRELAEELIEEIERLIEEEGNFALEFALRVAAEAARRFLSSSS
B11: il10ra_site1_sap_31_mot_HHH_b2_03434_000000017_0001_1_19_H_._HHH_b1_05597_0001_0000700032_0000001_0_0001 (protein)
chain: SLEEELERLLRELGVPPELIRLLELAFRVQRRQGVPPEDVLRALLYFLEAAGDPAREAVRELLER
B12: il10ra_site1_normal_mot_HHH_b2_06786_000000018_0001_41_57_H_._HHH_b1_03836_af2_0001_0000300012_0000002_0 (protein)
chain: SSSSSSDFAEIAAEAARIAFRLSDPELLQEVWELFRRYIEEGDERYEEELERLLEEIGSSSSSSS
B13: il10ra_site1_normal_mot_HHH_b2_00984_000000042_0001_1_20_H_._HHH_b2_00680_af2_0001_0000100001_0000001_0 (protein)
chain: SSSSSSDAEEEARELIEEAEQIEDEEEAVEILAEAVRLALRAGNAELLQEIWKAIKEISSSSSSS
B14: il10ra_site1_sap_22_mot_HHH_b1_02420_000000033_0001_20_36_H_._HHH_b2_07350_0001_0000700038_0000002_0_0001 (protein)
chain: SIEELVRLIVELAGAPPEVERQLQLTVRAAQDLSPFASEWMQRELEEVIENNDEEAAEEIIRYFK
B15: il10ra_site1_sap_21_mot_5fda0655e6834f3f331eaa9f580e88ed_0001_af2_000000239_0001_36_50_H_._HHH_b2_05691_0001_0000700031_0000001_0_0001 (protein)
chain: SSSDEAYEAAKRAIERAIELARNGDPEEAQELLREAIELAEELNTQAARWSLEHLLKLIEQSSSS
B16: il10ra_site1_sap_12_mot_HHH_b2_00092_000000181_0001_22_39_H_._HHH_b2_07100_0001_0000300011_0000002_0_0001 (protein)
chain: SSSSDANEEIYKLIRRALEALANGNPEEAEELLREAEELAREANSPIMEFAIRTAQRNVKSSSSS
B17: il10ra_site1_sap_25_mot_HHH_b2_01760_000000115_0001_41_54_H_._f66b54841b0899907a24864da6a818e8_0001_0001_0000100001_0000001_0_0001 (protein)
chain: SSSSSEEEEELRELLEEIRRAAEEGDQELVVRLTLEASRLALESGDQELLHEIWRLFVELTSSSS
B18: il10ra_site1_normal_mot_HHH_b2_00475_000000107_0001_44_57_H_._HHH_b2_03520_0001_0000400025_0000001_0 (protein)
chain: SSSSDEEEVSHLLFRALQLLEEGDKEEAEELVEEAKRIAEESNDPELERYVEIAEHFVKAHSSSS
B19: il10ra_site1_sap_14_mot_HHH_b1_05329_000000008_0001_43_56_H_._HHH_b2_01366_0001_0000200013_0000001_0_0001_af2pred_0001 (protein)
chain: SSSSDEEQAKRLVEFLLKAARELEDPERRKLTLRDAKHAAEAIGDEELRELVEEVEEELRSSSSS
B20: il10ra_site1_normal_mot_HHH_b2_03708_000000000_0001_1_18_H_._HHH_b1_01365_0001_0000200017_0000001_0 (protein)
chain: SSSSDEEIQRVSELSLRIFRLLLRGNEEEARELLEEAIELAQEIGDEQLLRVLEHLLQVASSSSS
B21: il10ra_site1_sap_15_mot_HHH_b1_02881_000000046_0001_1_20_H_._HHH_b1_00963_af2_0001_0000300030_0000001_1_0001 (protein)
chain: SSSSSEEEEEAEELLKEVQRLIEEGNDEEALELIQEALELVIQLGDEEKLQRLWELVKAISSSSS
B22: il10ra_site1_sap_25_mot_HHH_b1_05254_000000006_0001_1_19_H_._HHH_b1_06224_0001_0000400029_0000001_0_0001 (protein)
chain: SSSSDLRRRLYELLRKIAELIHEGNEEEARELIEEAQEVAEEAGNDVARAQLEYLERHLNSSSSS
B23: il10ra_site1_sap_15_mot_HHH_b2_07006_000000108_0001_1_19_H_._HHH_b2_04667_0001_0000300007_0000001_0_0001_af2pred_0001 (protein)
chain: SSSSSSEQETRAIRLLLETSLEAGDEEALKKLLRAAKRIAKLANDPELQRLIEEIEEELSSSSSS
B24: il10ra_site1_normal_mot_HHH_b2_02262_af2_000000007_0001_40_53_H_._429e03ef57af3a05afeb6c1314328484_0001_1_af2_0001_0000500025_0000001_0 (protein)
chain: DEELLREILEKLKKVPDPEVRELAEEAEELLERGNPERAAQVLIRAIFLAGDPELLKLLWEANKK

Target: il10ra, Q13651
Assay: yeast display titration

Apparent Kd, inactive:
B1 no binding seen, B2 no binding seen, B3 no binding seen, B4 no binding seen, B5 no binding seen, B6 no binding seen, B7 no binding seen, B8 no binding seen, B9 no binding seen, B10 no binding seen, B11 no binding seen, B12 no binding seen, B13 no binding seen, B14 no binding seen, B15 no binding seen, B16 no binding seen, B17 no binding seen, B18 no binding seen, B19 no binding seen, B20 no binding seen, B21 no binding seen, B22 no binding seen, B23 no binding seen, B24 no binding seen
